{"source": "ChEMBL document CHEMBL5728042", "about": "“Selective androgen receptor degrader (SARD) ligands and methods of use thereof” (2020)", "biological_target": "T1, Androgen receptor (Homo sapiens, UniProt P10275)", "T1 sequence (P10275 whole entry)": "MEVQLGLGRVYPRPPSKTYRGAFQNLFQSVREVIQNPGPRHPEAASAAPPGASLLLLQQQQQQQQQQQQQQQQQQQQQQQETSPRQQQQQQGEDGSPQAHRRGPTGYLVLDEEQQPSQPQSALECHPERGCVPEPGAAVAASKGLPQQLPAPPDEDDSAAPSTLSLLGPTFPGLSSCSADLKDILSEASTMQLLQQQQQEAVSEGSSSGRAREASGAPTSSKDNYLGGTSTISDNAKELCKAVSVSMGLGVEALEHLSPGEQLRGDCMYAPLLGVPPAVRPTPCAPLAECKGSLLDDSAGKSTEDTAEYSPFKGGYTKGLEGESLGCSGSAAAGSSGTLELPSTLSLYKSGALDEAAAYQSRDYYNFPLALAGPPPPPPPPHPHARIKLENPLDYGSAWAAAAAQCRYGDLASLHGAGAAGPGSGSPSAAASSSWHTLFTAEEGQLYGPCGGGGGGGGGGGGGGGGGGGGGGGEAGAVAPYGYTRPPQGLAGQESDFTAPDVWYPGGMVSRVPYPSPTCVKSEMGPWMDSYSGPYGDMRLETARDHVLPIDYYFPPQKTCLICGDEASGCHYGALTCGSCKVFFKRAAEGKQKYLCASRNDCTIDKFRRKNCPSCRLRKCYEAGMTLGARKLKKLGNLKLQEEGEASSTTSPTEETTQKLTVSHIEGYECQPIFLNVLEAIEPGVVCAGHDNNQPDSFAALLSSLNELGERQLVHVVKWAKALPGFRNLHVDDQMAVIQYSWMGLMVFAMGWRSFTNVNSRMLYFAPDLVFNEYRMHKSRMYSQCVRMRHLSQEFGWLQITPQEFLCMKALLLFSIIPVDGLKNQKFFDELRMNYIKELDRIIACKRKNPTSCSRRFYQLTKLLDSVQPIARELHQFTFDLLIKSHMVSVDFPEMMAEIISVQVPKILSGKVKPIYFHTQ"}
{"smiles": "CC(=O)Nc1ccc(N2C(=S)N(c3ccc(C#N)c(C(F)(F)F)c3)C(=O)C23CCC3)cc1F", "values": [{"measurement": "Ki", "result": 1450, "unit": "nM"}]}
